# Results taken from the supplement of paper PMC10689618.
# Where a name gives a salt, the structure may show the parent alone. Some of the results follow. Single values are uncertain, as repeats are few or missing.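 Labelled rat cortical synaptosomes were engulfed by primary human fetal astrocytes. Engulfment equaled a red/green ratio, corrected for calcein live-cell signal and normalized to the plate median. Compounds were toxic when calcein dropped over 30%, and reduced phagocytosis when below 70% of the median above 5 µM.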
# Key:
# Conditions in all cases: 24 h
# Human fetal astrocytes [1] = experiment: loss of total cells relative to no-compound high-control median (toxicity); higher = more toxic (fewer cells)
# Human fetal astrocytes [2] = experiment: as above; remark: listed apart in the source
# Human fetal astrocytes [3] = experiment: synaptosome phagocytosis (pHrodo/calcein intensity ratio) relative to plate median of data wells; higher = more phagocytosis
# Human fetal astrocytes [4] = experiment: as above; remark: listed apart in the source
SMILES,loss of total cells (Human fetal astrocytes [1]; 1.39 µM),loss of total cells (Human fetal astrocytes [1]; 2.78 µM),loss of total cells (Human fetal astrocytes [1]; 5.56 µM),loss of total cells (Human fetal astrocytes [1]; 11.11 µM),loss of total cells (Human fetal astrocytes [1]; 22.22 µM),loss of total cells (Human fetal astrocytes [2]; 1.39 µM),loss of total cells (Human fetal astrocytes [2]; 2.78 µM),loss of total cells (Human fetal astrocytes [2]; 5.56 µM),loss of total cells (Human fetal astrocytes [2]; 11.11 µM),loss of total cells (Human fetal astrocytes [2]; 22.22 µM),synaptosome phagocytosis (Human fetal astrocytes [3]; 1.39 µM),synaptosome phagocytosis (Human fetal astrocytes [3]; 2.78 µM),synaptosome phagocytosis (Human fetal astrocytes [3]; 5.56 µM),synaptosome phagocytosis (Human fetal astrocytes [3]; 11.11 µM),synaptosome phagocytosis (Human fetal astrocytes [3]; 22.22 µM),synaptosome phagocytosis (Human fetal astrocytes [4]; 1.39 µM),synaptosome phagocytosis (Human fetal astrocytes [4]; 2.78 µM),synaptosome phagocytosis (Human fetal astrocytes [4]; 5.56 µM),synaptosome phagocytosis (Human fetal astrocytes [4]; 11.11 µM),synaptosome phagocytosis (Human fetal astrocytes [4]; 22.22 µM)
Cc1ccccc1C(OCCN(C)C)c1ccccc1 (stereo not given) [Orphenadrine hydrochloride],-15.6%,-10.4%,-0.5%,-2.9%,-6.5%,14.9%,3.4%,18.9%,-7%,7.9%,107%,86.6%,96.2%,111%,93.9%,102%,96.6%,97.8%,101%,89.8%
CC(N)C(=O)OC(C)(C)Cc1ccc(Cl)cc1 (stereo not given) [Alaproclate hydrochloride],-24.2%,-13.8%,-5.1%,2.2%,13.2%,-46%,21.4%,13.7%,39.7%,9.7%,81.5%,122%,79.1%,104%,101%,122%,92.1%,103%,102%,97.2%
N=C(N)NC(=O)c1nc(Cl)c(N)nc1N [Amiloride hydrochloride],5.5%,-14.1%,-19.8%,11.2%,-16.9%,-3.3%,-14.3%,11.7%,1.6%,12.5%,82.3%,90.8%,104%,95.3%,76.4%,102%,95.8%,79.2%,114%,65.1%
Cc1nc2ccccn2c(=O)c1CCN1CCC(C(=O)c2ccc(F)cc2)CC1 [Pirenperone],-4.7%,-13.5%,-8.4%,-18.8%,-14.8%,1.6%,-46.8%,19.9%,10.8%,6.5%,114%,92.7%,104%,80.4%,77.8%,62%,90.7%,104%,109%,105%
CN1CCN2c3ccccc3Cc3ccccc3C2C1 (stereo not given) [Mianserin hydrochloride],-5.2%,3.2%,6.1%,12.4%,12.1%,-12%,15.3%,-21.4%,51%,6.3%,79.7%,102%,94.6%,125%,111%,118%,99.6%,131%,105%,96.2%
NCCCS(=O)(=O)O [3-Amino-1-propanesulfonic acid sodium],-20.6%,-14.7%,-37.3%,-4.9%,15.4%,-11.5%,0.4%,4.4%,6.8%,8.9%,88.3%,129%,120%,110%,134%,85.1%,102%,106%,105%,117%
CC(C)NCC(O)c1ccc(O)c(O)c1 (racemic) [(±)-Isoproterenol hydrochloride],23.2%,8.6%,5.2%,23.8%,16.8%,13.4%,-34.2%,-9.1%,10.1%,-13.1%,109%,146%,97.6%,96.5%,66%,92.6%,72.3%,104%,104%,101%
O=C(O)C1=CCNCC1 [Isoguvacine hydrochloride],-13.8%,-29.1%,-4.1%,-13%,-4%,9.7%,19.1%,20.3%,7.1%,9.8%,109%,93.3%,131%,150%,115%,128%,82.6%,109%,124%,117%
NCCc1c[nH]cn1 [Histamine dihydrochloride],-5.4%,-20.5%,0.8%,10.3%,3.2%,2.7%,-18%,-25.1%,6.1%,15.5%,92.6%,111%,119%,123%,100%,101%,123%,122%,139%,133%
CCCC(CCC)C(=O)O [Valproic acid sodium],-9%,4.1%,-5.2%,6.7%,13.1%,-2.7%,2.4%,-1.4%,-1.4%,28.3%,75.5%,88.1%,99.2%,123%,134%,100%,120%,96%,101%,76.3%
O=C(Nc1ccc([N+](=O)[O-])cc1Cl)c1cc(Cl)ccc1O [Niclosamide],-10%,20.4%,53.1%,47.6%,66.4%,25.8%,-17.5%,26.1%,27.2%,36.4%,78.9%,44.7%,68.3%,20.7%,45.4%,84.1%,60%,0%,10.6%,19.5%
NCCS(=O)(=O)O [Taurine],-4.7%,1.5%,-6.7%,2.7%,-0.8%,-17.7%,-28.6%,-5%,35.7%,5.3%,107%,112%,96.8%,149%,82.4%,108%,108%,118%,77.6%,88.4%
CC(=O)Nc1nnc(S(N)(=O)=O)s1 [Acetazolamide],-28.6%,-13.5%,-15.2%,-11.2%,-10.9%,-38.2%,0.3%,3.3%,-10.9%,14.2%,100%,104%,98.6%,155%,79.1%,75.9%,96.1%,82.9%,129%,101%
Cn1cnc2c1c(=O)[nH]c(=O)n2C [Theobromine],-30.1%,-12.9%,-3.9%,-8%,-28%,6.2%,-15.9%,-2.8%,9.5%,-7%,92.1%,81.2%,98.6%,108%,99.1%,112%,107%,114%,136%,133%
Oc1ccc(O)cc1 [Hydroquinone],-2.1%,-8.5%,4.9%,-3.1%,-1.6%,-3.3%,10.7%,16.5%,-10.9%,25.5%,113%,104%,91.5%,74.7%,86.8%,105%,93.9%,120%,95.5%,96%
CCOC(=O)c1ncn2c1CN(C)C(=O)c1cc(F)ccc1-2 [Flumazenil],-0.4%,-6.8%,-2.5%,-15.7%,-8%,-37.1%,19.8%,5%,31.8%,30.2%,77.1%,185%,124%,154%,142%,88.2%,104%,97.5%,122%,125%
NC(=O)CC[C@H](N)C(=O)O [L-Glutamine],-7.9%,-6.8%,-2.5%,0.4%,20.8%,-16.4%,6.1%,11.7%,13.5%,-3%,102%,143%,121%,124%,124%,116%,130%,83.1%,124%,96.7%
COc1cc2nc(N3CCN(C(=O)c4ccco4)CC3)nc(N)c2cc1OC [Prazosin hydrochloride],-0.3%,-6.3%,-1.7%,9.6%,-0.8%,3.9%,-15.3%,-9.8%,-11.8%,27.7%,98.8%,98.8%,60.4%,106%,89.4%,120%,92.6%,119%,123%,112%
CN(C)CCC(c1ccc(Br)cc1)c1ccccn1 (racemic) [(±)-Brompheniramine maleate],6.2%,0%,-12.4%,22%,26.7%,-28.2%,25.4%,12.4%,45.6%,5.9%,49.9%,131%,93.3%,131%,114%,129%,142%,98.1%,110%,111%
CN(C)CCCC1(c2ccc(F)cc2)OCc2cc(C#N)ccc21 (stereo not given) [Citalopram hydrobromide],-12.1%,-7.2%,-8.8%,-8.5%,12.4%,-35.5%,35.7%,11.8%,53.4%,15.9%,67.3%,119%,89.3%,92.5%,84.5%,78.6%,100%,85.6%,96.3%,91.2%
O=[N+]([O-])c1cccc2cn[nH]c12 [7-Nitroindazole],-17.5%,-2.3%,-3.3%,1.9%,20.6%,-13.9%,-9%,-15.4%,17.6%,9.6%,125%,115%,119%,139%,145%,77%,98.2%,108%,106%,98.9%
CCCCOc1cc(CC2CNC(=O)N2)ccc1OC (stereo not given),-7.7%,-17.1%,-9.7%,11.2%,9.4%,-10.7%,-10.5%,-13.2%,17.6%,31.9%,88.2%,89.6%,72.6%,120%,144%,96.3%,87.8%,108%,102%,108%
CC(C)NCC(O)COc1cccc2ccccc12 (racemic) [(±)-Propranolol hydrochloride],-17.5%,-5.9%,7%,-4.8%,7.5%,10.8%,2.1%,14.7%,12.5%,32.3%,30.8%,39.6%,36.9%,39.5%,20.8%,98.7%,109%,87.9%,84.2%,92.9%
O=c1n(CCCN2CCN(c3cccc(Cl)c3)CC2)nc2ccccn12 [Trazodone hydrochloride],-17.7%,-11.7%,-6.7%,-18.8%,-37.9%,-33.1%,27%,-4.3%,16.1%,15.3%,82.1%,118%,91.3%,97.7%,118%,88.1%,105%,102%,80.9%,80.1%
CCCNC(C)C(=O)Nc1ccccc1C (stereo not given) [Prilocaine hydrochloride],-7.1%,-6.9%,9.6%,1.1%,-12.3%,33.1%,-31.7%,23.6%,-0.3%,24.6%,127%,92.4%,107%,79.7%,110%,110%,116%,114%,130%,148%
CN1CCN(C2=Nc3ccccc3Oc3ccc(Cl)cc32)CC1 [Loxapine succinate],-2.4%,5%,2.3%,16.2%,-13.1%,-18.5%,16.6%,-13.7%,3.2%,-7%,101%,110%,103%,72.6%,102%,102%,81.2%,73.1%,97.3%,102%

# Already shown: 2 of the compounds above.
SMILES,loss of total cells (Human fetal astrocytes [1]; 1.39 µM),loss of total cells (Human fetal astrocytes [1]; 2.78 µM),loss of total cells (Human fetal astrocytes [1]; 5.56 µM),loss of total cells (Human fetal astrocytes [1]; 11.11 µM),loss of total cells (Human fetal astrocytes [1]; 22.22 µM),loss of total cells (Human fetal astrocytes [2]; 1.39 µM),loss of total cells (Human fetal astrocytes [2]; 2.78 µM),loss of total cells (Human fetal astrocytes [2]; 5.56 µM),loss of total cells (Human fetal astrocytes [2]; 11.11 µM),loss of total cells (Human fetal astrocytes [2]; 22.22 µM),synaptosome phagocytosis (Human fetal astrocytes [3]; 1.39 µM),synaptosome phagocytosis (Human fetal astrocytes [3]; 2.78 µM),synaptosome phagocytosis (Human fetal astrocytes [3]; 5.56 µM),synaptosome phagocytosis (Human fetal astrocytes [3]; 11.11 µM),synaptosome phagocytosis (Human fetal astrocytes [3]; 22.22 µM),synaptosome phagocytosis (Human fetal astrocytes [4]; 1.39 µM),synaptosome phagocytosis (Human fetal astrocytes [4]; 2.78 µM),synaptosome phagocytosis (Human fetal astrocytes [4]; 5.56 µM),synaptosome phagocytosis (Human fetal astrocytes [4]; 11.11 µM),synaptosome phagocytosis (Human fetal astrocytes [4]; 22.22 µM)
Oc1ccc(O)cc1 [Hydroquinone],-2.1%,-8.5%,4.9%,-3.1%,-1.6%,-3.3%,10.7%,16.5%,-10.9%,25.5%,113%,104%,91.5%,74.7%,86.8%,105%,93.9%,120%,95.5%,96%
CCOC(=O)c1ncn2c1CN(C)C(=O)c1cc(F)ccc1-2 [Flumazenil],-0.4%,-6.8%,-2.5%,-15.7%,-8%,-37.1%,19.8%,5%,31.8%,30.2%,77.1%,185%,124%,154%,142%,88.2%,104%,97.5%,122%,125%
